Test results reported in patent US6569846B1, “Palladium-substituted bacteriochlorophyll derivatives and use thereof” (Yeda Research and Development Co. Ltd., priority 1998, dated 2003).
For at least one compound, name, drawing or mass did not settle the structure.

Tests used:
C3H/BA mammary carcinoma = assay: In vivo PDT of BA mammary carcinoma
Protocol: (§1) Photodynamic therapy parameters: Mice with tumors measuring 5-7 mm in diameter were entered into PDT experiments. Three Pd-BPheid drug doses (1, 5 and 10 mg/kg) and two light doses (100 and 300 Joules/sq.cm) were evaluated. A formulation of Pd-BPheid dissolved in Cremophor was administered by i.v. tail injection. PDT light exposure was started either 15 minutes, 1 hour or 4 hours following injection. […] A titanium sapphire laser tuned to 757 nm was used as the light source for PDT. Laser generated light was coupled into quartz fibers for delivery of light to tumors. A light power density of 75 mW/sq.cm was used. Tumor size was measured 3 days per week following PDT treatments and the percentage of tumor cures (defined as no tumor recurrence for 40 days post treatment) was determined.
(§2) In vivo PDT Response: Tables 4 and 5 hereinafter provide summaries of the PDT treatment results for C3H mice transplanted with either the BA mammary carcinoma or the RIF-1 fibrosarcoma. Each table indicates the following parameters: 1) intravenous drug dose expressed in mg/kg; 2) laser treatment parameters, including the total light dose (J/cm^2), the wavelength (757 nm), the light dose rate (mW/cm^2), and the time interval ([…], 4) toxicity (four mice died shortly after treatment), 5) tumor regrowth (consisting of the number of days between PDT treatment and tumor recurrence) and 6) the number of mice (and percentage) with Pd-BPheid PDT induced tumor cures.

RIF-1 fibrosarcoma = assay: In vivo PDT of RIF-1 fibrosarcoma
Protocol: as §1, §2

[1] = 5 mg/Kg i.v., 300 J/cm^2, 757 nm, 75 mW/cm^2, 15 min. interval
[2] = 10 mg/Kg i.v., 100 J/cm^2, 757 nm, 75 mW/cm^2, 1 HR interval
[3] = 10 mg/Kg i.v., 100 J/cm^2, 757 nm, 75 mW/cm^2, 15 min. interval
[4] = 10 mg/Kg i.v., 300 J/cm^2, 757 nm, 75 mW/cm^2, 1 HR interval

Measured: Summary (cures), symbol

CC[C@H]1C2=NC(=Cc3c(C(C)=O)c(C)c4[n]3[Pd][n]3c(c(C)c5c3=C(C3=NC(=C4)[C@@H](C)[C@@H]3CCC(=O)O)[C@@H](C(=O)OC)C5=O)=C2)[C@@H]1C [Pd-BPheid, Pd-bacteriopheophorbide a]
+: C3H/BA mammary carcinoma; 5 mg/Kg i.v., 300 J/cm^2, 757 nm, 75 mW/cm^2, 1 HR interval | C3H/BA mammary carcinoma; [1] | C3H/BA mammary carcinoma; [2] | C3H/BA mammary carcinoma; [3] | C3H/BA mammary carcinoma; [4] | RIF-1 fibrosarcoma; 5 mg/Kg i.v., 300 J/cm^2, 757 nm, 75 mW/cm^2, 1 HR. interval | RIF-1 fibrosarcoma; [1] | RIF-1 fibrosarcoma; [2] | RIF-1 fibrosarcoma; [3] | RIF-1 fibrosarcoma; [4] | RIF-1 fibrosarcoma; 10 mg/Kg i.v., 300 J/cm^2, 757 nm, 75 mW/cm^2, 15 min. interval
